Measurements from patent publication US20200140501A1 (published 2020).
No constants are given. Whether binding was seen depends on the method and setting. Some results given as binding are weak or reduced against the parent protein; the word gives no strength.

Protein sequences, listed by entry. Tags and fused reporters are not part of them. Residues count along the entry.
UniProt Q15389, residues 20-498: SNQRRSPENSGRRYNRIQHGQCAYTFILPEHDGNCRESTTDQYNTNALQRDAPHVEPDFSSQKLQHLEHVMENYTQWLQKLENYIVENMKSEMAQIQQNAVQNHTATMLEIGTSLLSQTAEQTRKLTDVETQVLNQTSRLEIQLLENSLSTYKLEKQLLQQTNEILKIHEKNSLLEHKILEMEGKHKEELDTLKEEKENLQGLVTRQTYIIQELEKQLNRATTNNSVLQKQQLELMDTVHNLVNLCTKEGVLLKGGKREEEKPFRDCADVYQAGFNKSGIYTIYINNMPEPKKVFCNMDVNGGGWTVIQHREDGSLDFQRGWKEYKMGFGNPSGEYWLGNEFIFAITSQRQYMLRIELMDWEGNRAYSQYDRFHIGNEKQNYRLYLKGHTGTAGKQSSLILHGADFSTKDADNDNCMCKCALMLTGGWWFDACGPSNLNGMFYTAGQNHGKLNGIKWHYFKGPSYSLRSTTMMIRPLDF

B1: hNGAL lipocalin mutein SEQ ID NO: 7 (designed binder)
chain: QDSTSDLIPAPPLSKVPLQQNFQDNQFHGKWYVVGHAGNYILREDKDPEKMWATIYELKEDKSYDVTEVSFGPKKCNYRIWTFVPGSQPGEFTLGGIKSPPGDTSTLVRVVSTNYNQHAMVFFKHVLQNREFFEITLYGRTKELTSELKENFIRFSKSLGLPENHIVFPVPIDQCIDGSAWSHPQFEK
B2: hNGAL lipocalin mutein SEQ ID NO: 8 (designed binder)
chain: QDSTSDLIPAPPLSKVPLQQNFQDNQFHGKWYVVGQAGNYILREDKDPGKMWATIYELKEDKSYDVTEVSFGAKKCNYRIWTFVPGSQPGEFTLGGIKSDPGGTSTLVRVVSTNYNQHAMVFFKHVLQNREFFEITLYGRTKELTSELKENFIRFSKSLGLPENHIVFPVPIDQCIDGSAWSHPQFEK

Tests used:
[1] = molecular target: human angiopoietin-1 (Ang-1) (human) (UniProt Q15389); assay: competition ELISA format (FIG. 2)
[2] = molecular target: human angiopoietin-1 (Ang-1) (human) (UniProt Q15389); assay: solution competition ELISA

Binder | binding [1] | binding [2]
B1 | binds | binds
B2 | binds | 
